# Test system: bioengineered liver organoids
# Experiment: Drug metabolic activity of bioengineered liver organoid discs (mass spectrometry of media)
# Conditions: induced with phenobarbital and 3-MC
# Experimental: For hepatocyte functional analysis, culture medium was collected after the three week incubation. The media was stored at −80° C. until it was used for analysis. For analyzing albumin synthesis, albumin ELISA assay (Bethyl Laboratories Inc.) was carried out on each samples in triplicates. The albumin concentrations were normalized per mg of DNA. The media was also analyzed in the same fashion for urea secretion using a Quantichrome™ Urea Assay Kit (BioAssay Systems, Inc.). […] After 48 hours, media samples were collected and analyzed by mass spectrometry (FIGS. 3C and 3D), and compared with standards of individual metabolites (FIGS. 3A and 3B).
# In a second experiment, the liver organoids were prepared as described above in Example 1, Section A using LPC seeding and maintenance media. Alternatively, the organoids can be prepared using minimal LPC medium or hFLP medium instead. After seeding with hFLPCs, the discs were cultured for 3 weeks, with harvesting of cells at 1 week and 3 weeks for immunohistochemical and molecular analysis. Assays assessing albumin and urea synthesis and IHC analyses were performed as described above. Gene expression analyses were performed by RT-PCR after harvesting the organoids. Drug metabolism activity in the organoids was assessed after 1 week and 3 weeks of culturing. […] After 3, 6, 12, and 24 hours, media samples were collected and analyzed by mass spectrometry.
compound,measurement,setting,value
CN1C(=O)CN=C(c2ccccc2)c2cc(Cl)ccc21 [diazepam],Phase-1 metabolites found in media,"first experiment, organoids cultured 3 weeks, media collected after 48 hours","Temazepam, Nordiazepam"
same,Phase I metabolites formed by liver organoids,"second experiment, organoids after 1 week and 3 weeks of culturing, media after 3, 6, 12 and 24 hours",temazepam and nordiazepam
